Reference: PubChem BioAssay (EPA / NIEHS)
For some assays here: Shown are results outside the selection of hits, which stands elsewhere. Inconclusive results are not listed. This is a selection; strong and weak results do not stand in their true shares. The source made the active and inactive calls. How the source made its calls, unless noted: active means hit-call score of the fitted dose curve at least 0.9, where 1 is the maximum; inactive means score below 0.9.

The chains behind the UniProt entries cited, without tags or fusion partners. Where a name states a change or a piece, a line headed by the entry shows the natural chain unless it says otherwise.
UniProt P04799: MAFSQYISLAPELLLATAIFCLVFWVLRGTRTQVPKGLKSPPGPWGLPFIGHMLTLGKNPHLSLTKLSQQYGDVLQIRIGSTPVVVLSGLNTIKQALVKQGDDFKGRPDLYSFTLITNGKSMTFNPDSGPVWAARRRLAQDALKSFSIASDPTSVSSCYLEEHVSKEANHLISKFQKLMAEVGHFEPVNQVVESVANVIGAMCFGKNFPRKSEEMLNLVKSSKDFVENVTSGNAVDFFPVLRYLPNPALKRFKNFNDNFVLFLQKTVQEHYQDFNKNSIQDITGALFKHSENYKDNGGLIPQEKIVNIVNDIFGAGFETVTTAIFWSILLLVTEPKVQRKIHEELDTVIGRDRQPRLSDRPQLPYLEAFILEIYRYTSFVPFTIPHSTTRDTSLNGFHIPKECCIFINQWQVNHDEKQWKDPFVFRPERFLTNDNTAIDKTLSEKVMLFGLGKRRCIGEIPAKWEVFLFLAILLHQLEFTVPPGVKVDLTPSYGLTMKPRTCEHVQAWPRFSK
UniProt P08172, whole entry, looked up: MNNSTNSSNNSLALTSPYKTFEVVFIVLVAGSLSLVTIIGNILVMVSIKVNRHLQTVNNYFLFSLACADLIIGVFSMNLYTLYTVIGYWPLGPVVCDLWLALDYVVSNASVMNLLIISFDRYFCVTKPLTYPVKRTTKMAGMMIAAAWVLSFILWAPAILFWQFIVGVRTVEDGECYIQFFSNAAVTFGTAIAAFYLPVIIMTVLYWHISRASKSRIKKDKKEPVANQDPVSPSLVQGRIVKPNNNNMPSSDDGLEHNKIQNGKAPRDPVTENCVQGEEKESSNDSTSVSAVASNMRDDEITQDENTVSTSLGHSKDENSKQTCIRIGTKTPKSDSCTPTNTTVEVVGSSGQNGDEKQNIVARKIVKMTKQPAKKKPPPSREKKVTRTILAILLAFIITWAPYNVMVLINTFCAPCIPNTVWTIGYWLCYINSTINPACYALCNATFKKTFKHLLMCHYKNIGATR
UniProt P49327, whole entry, looked up: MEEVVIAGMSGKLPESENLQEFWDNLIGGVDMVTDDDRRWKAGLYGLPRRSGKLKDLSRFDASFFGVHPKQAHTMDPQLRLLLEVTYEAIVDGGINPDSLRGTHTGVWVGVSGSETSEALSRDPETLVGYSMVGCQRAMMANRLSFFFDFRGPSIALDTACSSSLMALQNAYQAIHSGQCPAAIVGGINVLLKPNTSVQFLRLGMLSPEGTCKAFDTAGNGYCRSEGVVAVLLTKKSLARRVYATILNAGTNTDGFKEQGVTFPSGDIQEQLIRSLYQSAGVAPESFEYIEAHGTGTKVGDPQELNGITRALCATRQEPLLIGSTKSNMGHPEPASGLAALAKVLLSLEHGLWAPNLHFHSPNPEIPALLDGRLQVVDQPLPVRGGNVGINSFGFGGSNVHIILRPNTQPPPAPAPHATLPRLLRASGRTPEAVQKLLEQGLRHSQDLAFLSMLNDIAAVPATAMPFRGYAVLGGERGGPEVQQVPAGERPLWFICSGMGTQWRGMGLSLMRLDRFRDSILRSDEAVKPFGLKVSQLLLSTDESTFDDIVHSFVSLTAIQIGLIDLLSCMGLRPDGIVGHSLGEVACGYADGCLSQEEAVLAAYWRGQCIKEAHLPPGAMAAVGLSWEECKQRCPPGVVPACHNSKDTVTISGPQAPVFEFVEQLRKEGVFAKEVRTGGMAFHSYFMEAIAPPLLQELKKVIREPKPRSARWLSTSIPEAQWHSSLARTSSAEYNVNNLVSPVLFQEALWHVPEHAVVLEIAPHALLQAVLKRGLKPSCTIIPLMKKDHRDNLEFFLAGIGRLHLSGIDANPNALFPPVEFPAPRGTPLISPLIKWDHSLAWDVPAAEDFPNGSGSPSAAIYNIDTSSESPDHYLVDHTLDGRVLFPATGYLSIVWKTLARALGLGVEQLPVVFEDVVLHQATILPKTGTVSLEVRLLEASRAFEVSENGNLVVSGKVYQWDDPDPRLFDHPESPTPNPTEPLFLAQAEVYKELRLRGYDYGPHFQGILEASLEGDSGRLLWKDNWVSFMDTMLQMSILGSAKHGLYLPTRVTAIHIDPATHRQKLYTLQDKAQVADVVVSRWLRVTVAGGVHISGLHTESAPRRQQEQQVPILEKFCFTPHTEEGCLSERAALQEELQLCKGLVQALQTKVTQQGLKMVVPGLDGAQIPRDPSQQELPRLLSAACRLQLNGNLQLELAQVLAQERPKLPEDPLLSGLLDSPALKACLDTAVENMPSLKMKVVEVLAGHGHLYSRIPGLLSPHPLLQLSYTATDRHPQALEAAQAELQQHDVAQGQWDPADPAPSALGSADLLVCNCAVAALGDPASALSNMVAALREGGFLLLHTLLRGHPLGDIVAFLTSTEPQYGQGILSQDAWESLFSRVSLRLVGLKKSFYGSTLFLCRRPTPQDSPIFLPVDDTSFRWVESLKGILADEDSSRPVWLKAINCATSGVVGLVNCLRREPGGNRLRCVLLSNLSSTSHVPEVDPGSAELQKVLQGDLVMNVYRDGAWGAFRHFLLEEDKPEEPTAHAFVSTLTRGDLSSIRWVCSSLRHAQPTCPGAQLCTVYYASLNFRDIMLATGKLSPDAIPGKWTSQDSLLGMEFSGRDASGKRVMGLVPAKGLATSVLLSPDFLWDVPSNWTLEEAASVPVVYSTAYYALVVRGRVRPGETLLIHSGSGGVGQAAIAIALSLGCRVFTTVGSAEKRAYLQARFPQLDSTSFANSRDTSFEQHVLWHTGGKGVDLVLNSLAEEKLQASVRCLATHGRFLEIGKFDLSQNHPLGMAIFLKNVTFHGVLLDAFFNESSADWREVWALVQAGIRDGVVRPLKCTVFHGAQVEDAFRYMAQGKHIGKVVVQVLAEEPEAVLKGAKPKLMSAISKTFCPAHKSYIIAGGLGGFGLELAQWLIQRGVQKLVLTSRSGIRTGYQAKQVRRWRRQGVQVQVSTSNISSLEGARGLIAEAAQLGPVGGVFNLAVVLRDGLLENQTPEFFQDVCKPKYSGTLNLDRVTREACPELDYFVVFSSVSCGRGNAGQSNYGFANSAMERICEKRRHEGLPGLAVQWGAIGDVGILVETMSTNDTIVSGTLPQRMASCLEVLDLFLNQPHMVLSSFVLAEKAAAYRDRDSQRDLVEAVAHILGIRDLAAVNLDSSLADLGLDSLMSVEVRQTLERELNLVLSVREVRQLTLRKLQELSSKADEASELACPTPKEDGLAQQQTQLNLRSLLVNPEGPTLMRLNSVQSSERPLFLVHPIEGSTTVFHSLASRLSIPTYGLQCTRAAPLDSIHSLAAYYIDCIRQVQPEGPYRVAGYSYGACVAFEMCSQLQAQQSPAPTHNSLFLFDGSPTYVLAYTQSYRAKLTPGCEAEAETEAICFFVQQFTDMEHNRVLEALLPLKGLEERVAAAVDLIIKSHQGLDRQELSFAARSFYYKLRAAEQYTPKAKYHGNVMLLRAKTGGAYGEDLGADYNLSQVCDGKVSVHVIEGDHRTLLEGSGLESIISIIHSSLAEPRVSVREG
UniProt P14780: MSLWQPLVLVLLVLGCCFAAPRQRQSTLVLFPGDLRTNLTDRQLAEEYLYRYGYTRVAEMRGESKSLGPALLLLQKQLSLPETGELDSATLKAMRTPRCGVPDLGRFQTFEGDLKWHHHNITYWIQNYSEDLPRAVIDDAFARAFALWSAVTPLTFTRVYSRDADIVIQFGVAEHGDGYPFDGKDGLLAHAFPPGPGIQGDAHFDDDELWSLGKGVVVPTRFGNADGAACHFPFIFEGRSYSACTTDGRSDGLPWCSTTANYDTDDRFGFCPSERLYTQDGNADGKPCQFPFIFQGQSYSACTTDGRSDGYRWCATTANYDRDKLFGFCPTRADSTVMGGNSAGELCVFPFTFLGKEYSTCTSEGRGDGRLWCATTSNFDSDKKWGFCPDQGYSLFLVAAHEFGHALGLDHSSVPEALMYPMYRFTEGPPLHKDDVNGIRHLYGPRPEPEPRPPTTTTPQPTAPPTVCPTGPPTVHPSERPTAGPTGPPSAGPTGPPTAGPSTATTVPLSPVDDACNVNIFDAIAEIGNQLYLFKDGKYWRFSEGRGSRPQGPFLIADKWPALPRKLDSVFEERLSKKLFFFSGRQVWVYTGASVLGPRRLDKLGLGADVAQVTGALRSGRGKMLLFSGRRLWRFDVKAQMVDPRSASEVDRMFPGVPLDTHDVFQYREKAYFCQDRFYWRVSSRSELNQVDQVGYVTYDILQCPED
UniProt P14416, whole entry, looked up: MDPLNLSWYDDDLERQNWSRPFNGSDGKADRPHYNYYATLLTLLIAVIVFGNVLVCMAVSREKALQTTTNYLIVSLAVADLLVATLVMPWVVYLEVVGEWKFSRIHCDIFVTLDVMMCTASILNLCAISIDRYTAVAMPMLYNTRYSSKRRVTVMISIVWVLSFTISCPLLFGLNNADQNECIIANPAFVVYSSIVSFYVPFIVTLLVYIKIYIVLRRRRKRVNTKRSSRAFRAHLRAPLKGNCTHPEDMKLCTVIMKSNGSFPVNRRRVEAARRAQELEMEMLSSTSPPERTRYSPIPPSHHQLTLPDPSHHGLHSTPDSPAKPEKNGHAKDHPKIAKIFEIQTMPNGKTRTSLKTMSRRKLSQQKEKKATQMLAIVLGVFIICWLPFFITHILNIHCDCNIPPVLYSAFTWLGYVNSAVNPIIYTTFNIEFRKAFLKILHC

Assays:
[1] = BSK_SAg_Proliferation: Cell Proliferation Assessment in the BioMAP Diversity Plus: SAg Assay (AID 2283095); conditions: primary human HUVEC with PBMC;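 further: relative cell number as total protein by SRB absorbance in sub-confluent culture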
Method in brief: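 HUVEC/PBMC co-culture, 96-well. TCA-fixed (10%), 0.1% SRB stain, A560 at 96 h. Protein content used as viability readout; bidirectional fitting vs DMSO control.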

[2] = read-out: Plasminogen activator inhibitor-1 (PAI1), SERPINE1 (gene 5054); experiment: BSK_MyoF_PAI1: BioMAP Diversity Plus: MyoF Assay for Plasminogen activator inhibitor-1 (PAI1) Biomarker Activity (AID 2284256); conditions: primary human lung fibroblasts
Method in brief: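 MyoF lung fibroblasts, human primary; compound 24 h; PAI-1 ELISA; positive-direction fit vs DMSO baseline; parallel SRB total-protein staining for cytotoxicity.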

[3] = read-out: Monocyte Chemoattractant Protein-1 (MCP1), CCL2 (gene 6347); experiment: BSK_LPS_MCP1: BioMAP Diversity Plus: LPS Assay for Monocyte Chemoattractant Protein-1 (MCP1) Biomarker Activity (AID 2283081); conditions: actives raise or lower the signal; primary human HUVEC with PBMC
Method in brief: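 ELISA read-out of MCP-1 after 24 h chemical dosing of a human umbilical vein endothelial cell/peripheral blood mononuclear cell co-culture stimulated with LPS. Gain or loss of signal fitted relative to DMSO controls.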

[4] = biological target: rat CYP1A2, Cyp1a2 (gene 24297) (UniProt P04799); experiment: NVS_ADME_rCYP1A2: NovaScreen (NVS) CYP450-related Enzyme Activity (ADME) Assay for rat CYP1A2 (AID 2283115; active means hit-call score of the fitted dose curve at least 0.9, where 1 is the maximum)
Method in brief: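 Primary testing ran in duplicate at 10 uM, with actives re-tested across concentration series. Fluorescence intensity from substrate turnover by recombinant protein, measured 1 hour post-dosing, with signal loss scored against acetonitrile vehicle.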

[5] = biological target: Muscarinic acetylcholine receptor M2 (Homo sapiens) (UniProt P08172); experiment: NVS_GPCR_hM2: NovaScreen (NVS) G Protein-Coupled Receptor Assay for human Muscarinic, M2 Receptor (AID 2283273; active means hit-call score of the fitted dose curve at least 0.9, where 1 is the maximum)
Method in brief: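 Filter-based radiodetection read bound radioligand 1 h after dosing CHO-derived membrane protein. Single-concentration duplicates (25 uM) first, then concentration-response for actives; signal loss versus DMSO scored.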

[6] = read-out: Fatty acid synthase (Homo sapiens) (UniProt P49327); experiment: LTEA_HepaRG_FASN: Life Technologies and Expression Analysis (LTEA) Assay for Fatty Acid Synthase (FASN) using HepaRG (AID 2283448); conditions: actives raise or lower the signal; mRNA level, 48 h
Method in brief: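 HepaRG, 48 h exposure, 8-pt half-log series top 100 uM, 0.5% DMSO vehicle, duplicates. Readout: FASN transcript by Fluidigm qRT-PCR; housekeeping-normalized; bidirectional curve fit vs DMSO baseline.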

[7] = read-out: Potassium channel subfamily K member 1 (KCNK1), KCNK1 (gene 3775); experiment: LTEA_HepaRG_KCNK1: Life Technologies and Expression Analysis (LTEA) Assay for Potassium channel subfamily K member 1 (KCNK1) using HepaRG (AID 2283511); conditions: actives raise or lower the signal; mRNA level, 48 h
Method in brief: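 HepaRG, 48 h exposure, 8-pt half-log series top 100 uM, 0.5% DMSO vehicle, duplicates. Readout: KCNK1 transcript by qRT-PCR (Fluidigm array), housekeeping-normalized; bidirectional curve fit relative to DMSO baseline.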

[8] = read-out: Lipoprotein lipase (LPL), LPL (gene 4023); experiment: LTEA_HepaRG_LPL: Life Technologies and Expression Analysis (LTEA) Assay for Lipoprotein lipase (LPL) using HepaRG (AID 2283515); conditions: actives raise or lower the signal; mRNA level, 48 h
Method in brief: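 HepaRG, 48 h exposure, 8-pt half-log dilutions from 100 uM, 0.5% DMSO vehicle, duplicates; qRT-PCR (Fluidigm array) of LPL mRNA vs housekeeping genes; bidirectional curve fit relative to DMSO baseline.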

[9] = read-out: Matrix Metallopeptidase 9 (MMP9), MMP9 (gene 4318); experiment: BSK_KF3CT_MMP9: BioMAP Diversity Plus: KF3CT Assay for Matrix Metallopeptidase 9 (MMP9) Biomarker Activity (AID 2283074); conditions: actives raise or lower the signal; primary human keratinocytes with fibroblasts
Method in brief: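 ELISA read-out of MMP-9 at 24 h post-dosing in a co-culture of human skin keratinocytes and foreskin fibroblasts. Gain or loss of signal was fitted in both directions against DMSO.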

[10] = read-out: Interleukin 6 Receptor (IL6R), IL6R (gene 3570); experiment: LTEA_HepaRG_IL6R: Life Technologies and Expression Analysis (LTEA) Assay for Interleukin 6 Receptor (IL6R) using HepaRG (AID 2283510); conditions: actives raise or lower the signal; mRNA level, 48 h
Method in brief: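 HepaRG, 48 h exposure, 8-pt half-log series, top 100 uM, 0.5% DMSO vehicle, duplicates. Read-out: TaqMan qRT-PCR of IL6R transcript, housekeeping-gene normalized. Gain or loss fitted relative to DMSO baseline.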

[11] = read-out: Interleukin-1 alpha (IL1a), IL1A (gene 3552); experiment: BSK_LPS_IL1a: BioMAP Diversity Plus: LPS Assay for Interleukin-1 alpha (IL1a) Biomarker Activity (AID 2283080); conditions: actives raise or lower the signal; primary human HUVEC with PBMC
Method in brief: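 HUVEC/PBMC co-culture, LPS system; 24 h after dosing; IL-1a by ELISA; gain or loss of signal fitted bidirectionally vs DMSO baseline.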

[12] = biological target: human Matrix Metalloproteinase-9 (MMP9), MMP9 (gene 4318) (UniProt P14780); experiment: NVS_ENZ_hMMP9: NovaScreen (NVS) Enzymatic Assay for human Matrix Metalloproteinase-9 (MMP9) (AID 2283190; active means hit-call score of the fitted dose curve at least 0.9, where 1 is the maximum;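 further: cell-free recombinant MMP9 protease activity read by fluorescent substrate signal; active means inhibition seen as loss of fluorescence signal versus DMSO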)
[13] = biological target: human Dopamine Receptor D2 (DRD2), DRD2 (gene 1813) (UniProt P14416); experiment: NVS_GPCR_hDRD2s: NovaScreen (NVS) G Protein-Coupled Receptor Assay for human Dopamine Receptor D2 (DRD2) (AID 2283266; active means hit-call score of the fitted dose curve at least 0.9, where 1 is the maximum)
Method in brief: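 Test compound (25 uM, duplicate in the primary screen; concentration series at follow-up) competed with radioligand for human DRD2 in CHO-derived membrane protein. Filter-based scintillation counting was done 1.5 hours after dosing, with loss of signal analysed against DMSO.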

[14] = CCTE_Padilla_ZF_144hpf_TERATOSCORE: (Legacy) CCTE's 144 Hour Post-fertilization zebrafish Assay Teratoscore, Padilla Lab (AID 2283679);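 further: zebrafish embryos with chorions exposed by immersion from 6-8 hpf to 5 dpf with daily renewal; teratogenicity score from eye scoring of death hatching and malformations at 144 hpf; higher score means more developmental defects relative to DMSO baseline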
Method in brief: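 Larvae scored by eye at 144 hpf for death, hatching and malformations after a day in clean Hanks'. Before that, daily-renewed exposure at 80 uM (0.4% DMSO, 26C) from roughly 6-8 hpf through 5 dpf, 4 embryos per chemical.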

CCCCCCCCCCCC#N
AC50 [1]: active: 33.8 µM | AC50 [2]: active: 29.2 µM

CCOP(=S)(OCC)Oc1ccc([N+](=O)[O-])cc1
outcome [3]: inactive | outcome [4]: inactive | outcome [5]: inactive | outcome [6]: inactive | outcome [7]: inactive | outcome [8]: inactive

Clc1cccc(Cl)c1Cl
outcome [9]: inactive | outcome [10]: inactive

CNC(=S)S
AC50 [11]: active: 10.2 µM | outcome [12]: inactive | outcome [13]: inactive | AC50 [14]: active: 31.8 µM
